This assay deals with ASC (apoptosis-associated speck-like protein containing a CARD), endogenous (human (endogenous in THP-1)) (UniProt Q9ULZ3). Description: co-IP; immunoprecipitation with anti-ASC from lysates of LPS-primed, ATP-treated THP-1-derived macrophages (shRNA-Ctrl, shRNA-SHP2 or shRNA-ANT1), protein A/G-agarose, immunoblot. A general note: In western blotting, separated proteins are transferred to a membrane and probed.

Protein sequences, listed by entry. Tags and fused reporters are not part of them.
UniProt Q9ULZ3: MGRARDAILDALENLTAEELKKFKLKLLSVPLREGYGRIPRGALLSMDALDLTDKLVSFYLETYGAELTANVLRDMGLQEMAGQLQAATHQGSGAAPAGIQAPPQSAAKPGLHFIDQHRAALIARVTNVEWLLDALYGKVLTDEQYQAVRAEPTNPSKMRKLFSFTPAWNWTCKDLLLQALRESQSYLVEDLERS
UniProt P29466: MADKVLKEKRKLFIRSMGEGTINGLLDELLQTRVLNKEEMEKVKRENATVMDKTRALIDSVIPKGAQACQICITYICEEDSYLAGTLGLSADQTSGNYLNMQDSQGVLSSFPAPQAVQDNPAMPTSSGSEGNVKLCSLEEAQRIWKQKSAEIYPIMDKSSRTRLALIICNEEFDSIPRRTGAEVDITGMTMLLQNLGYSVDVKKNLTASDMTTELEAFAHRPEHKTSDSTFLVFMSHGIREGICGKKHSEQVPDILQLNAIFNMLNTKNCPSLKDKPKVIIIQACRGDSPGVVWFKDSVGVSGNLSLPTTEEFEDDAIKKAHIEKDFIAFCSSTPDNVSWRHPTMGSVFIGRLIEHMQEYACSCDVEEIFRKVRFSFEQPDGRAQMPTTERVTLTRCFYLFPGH

These are yes or no findings as the source states them, for the method shown. Binding seen in cells or lysates may run through a third protein. Some binding calls cover weakened binding; strength is not graded here.

Turning to “pro-caspase-1, endogenous (from UniProt P29466 1-404) (enzyme)”, the binding result is given as “binds”.
